Only a part is listed here, and it is no random draw.
Compound: COC(=O)C#Cc1ccccc1 [methyl 3-phenylpropiolate]
Test: log2 ratio of iodoacetamide-alkyne labeling of the cysteine site, DMSO over compound (competition); higher = stronger covalent engagement of the cysteine by the compound, active = 1 or more
Details: 500 µM; treatment time 1 h; system: HEK293T cell lysate
Method in brief: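 HEK293T lysate (2 mg/mL) was incubated with electrophile (500 µM) or vehicle for 1 h at ambient temperature and then with iodoacetamide alkyne for 1 h. Labelled proteins were clicked to sCIP-TMT reagents, pooled, digested, enriched on streptavidin and measured by Orbitrap Eclipse LC-MS/MS with FAIMS, with FragPipe quantification. The per-cysteine log2 competition ratio is mean control-channel reporter intensity over mean compound-channel reporter intensity. Across three replicates with duplicate channels, cysteines quantified in only one replicate were excluded.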

Protein sequences, listed by entry. Tags and fused reporters are not part of them. Lines headed by an entry give the natural chain unless they say otherwise; changes in a name come on top.
UniProt Q15007: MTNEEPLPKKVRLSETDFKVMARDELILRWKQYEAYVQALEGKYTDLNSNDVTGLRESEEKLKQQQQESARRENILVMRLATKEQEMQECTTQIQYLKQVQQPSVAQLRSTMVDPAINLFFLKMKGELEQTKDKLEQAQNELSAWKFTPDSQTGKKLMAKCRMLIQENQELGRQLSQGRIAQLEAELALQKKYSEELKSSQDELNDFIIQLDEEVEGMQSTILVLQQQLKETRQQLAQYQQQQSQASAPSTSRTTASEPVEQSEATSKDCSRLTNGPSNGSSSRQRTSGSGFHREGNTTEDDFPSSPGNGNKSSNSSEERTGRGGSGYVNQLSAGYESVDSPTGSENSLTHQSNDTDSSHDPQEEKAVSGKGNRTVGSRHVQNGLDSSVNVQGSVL
UniProt Q14974, whole entry, looked up: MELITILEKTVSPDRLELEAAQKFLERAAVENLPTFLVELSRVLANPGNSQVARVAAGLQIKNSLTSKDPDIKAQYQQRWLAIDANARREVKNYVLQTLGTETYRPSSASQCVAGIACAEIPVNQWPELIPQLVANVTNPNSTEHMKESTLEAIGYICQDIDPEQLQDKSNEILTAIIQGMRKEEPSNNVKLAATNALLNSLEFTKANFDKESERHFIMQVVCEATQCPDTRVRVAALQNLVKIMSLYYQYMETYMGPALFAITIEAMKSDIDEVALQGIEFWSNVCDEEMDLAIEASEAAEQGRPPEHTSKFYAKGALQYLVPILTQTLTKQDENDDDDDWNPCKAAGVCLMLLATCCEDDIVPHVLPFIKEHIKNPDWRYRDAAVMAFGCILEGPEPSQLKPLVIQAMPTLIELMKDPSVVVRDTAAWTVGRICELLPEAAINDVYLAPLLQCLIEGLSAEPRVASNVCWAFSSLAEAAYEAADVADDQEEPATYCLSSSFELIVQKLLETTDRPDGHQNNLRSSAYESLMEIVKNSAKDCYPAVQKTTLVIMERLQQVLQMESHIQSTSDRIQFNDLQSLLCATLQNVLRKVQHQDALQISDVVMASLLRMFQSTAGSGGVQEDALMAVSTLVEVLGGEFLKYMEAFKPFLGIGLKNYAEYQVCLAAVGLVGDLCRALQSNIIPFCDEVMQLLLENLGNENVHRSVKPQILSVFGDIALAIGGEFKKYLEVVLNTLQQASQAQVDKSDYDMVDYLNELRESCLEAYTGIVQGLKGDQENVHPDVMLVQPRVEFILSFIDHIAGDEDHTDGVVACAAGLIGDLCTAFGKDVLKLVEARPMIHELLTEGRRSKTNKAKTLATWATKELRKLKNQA
UniProt Q14204, whole entry, looked up: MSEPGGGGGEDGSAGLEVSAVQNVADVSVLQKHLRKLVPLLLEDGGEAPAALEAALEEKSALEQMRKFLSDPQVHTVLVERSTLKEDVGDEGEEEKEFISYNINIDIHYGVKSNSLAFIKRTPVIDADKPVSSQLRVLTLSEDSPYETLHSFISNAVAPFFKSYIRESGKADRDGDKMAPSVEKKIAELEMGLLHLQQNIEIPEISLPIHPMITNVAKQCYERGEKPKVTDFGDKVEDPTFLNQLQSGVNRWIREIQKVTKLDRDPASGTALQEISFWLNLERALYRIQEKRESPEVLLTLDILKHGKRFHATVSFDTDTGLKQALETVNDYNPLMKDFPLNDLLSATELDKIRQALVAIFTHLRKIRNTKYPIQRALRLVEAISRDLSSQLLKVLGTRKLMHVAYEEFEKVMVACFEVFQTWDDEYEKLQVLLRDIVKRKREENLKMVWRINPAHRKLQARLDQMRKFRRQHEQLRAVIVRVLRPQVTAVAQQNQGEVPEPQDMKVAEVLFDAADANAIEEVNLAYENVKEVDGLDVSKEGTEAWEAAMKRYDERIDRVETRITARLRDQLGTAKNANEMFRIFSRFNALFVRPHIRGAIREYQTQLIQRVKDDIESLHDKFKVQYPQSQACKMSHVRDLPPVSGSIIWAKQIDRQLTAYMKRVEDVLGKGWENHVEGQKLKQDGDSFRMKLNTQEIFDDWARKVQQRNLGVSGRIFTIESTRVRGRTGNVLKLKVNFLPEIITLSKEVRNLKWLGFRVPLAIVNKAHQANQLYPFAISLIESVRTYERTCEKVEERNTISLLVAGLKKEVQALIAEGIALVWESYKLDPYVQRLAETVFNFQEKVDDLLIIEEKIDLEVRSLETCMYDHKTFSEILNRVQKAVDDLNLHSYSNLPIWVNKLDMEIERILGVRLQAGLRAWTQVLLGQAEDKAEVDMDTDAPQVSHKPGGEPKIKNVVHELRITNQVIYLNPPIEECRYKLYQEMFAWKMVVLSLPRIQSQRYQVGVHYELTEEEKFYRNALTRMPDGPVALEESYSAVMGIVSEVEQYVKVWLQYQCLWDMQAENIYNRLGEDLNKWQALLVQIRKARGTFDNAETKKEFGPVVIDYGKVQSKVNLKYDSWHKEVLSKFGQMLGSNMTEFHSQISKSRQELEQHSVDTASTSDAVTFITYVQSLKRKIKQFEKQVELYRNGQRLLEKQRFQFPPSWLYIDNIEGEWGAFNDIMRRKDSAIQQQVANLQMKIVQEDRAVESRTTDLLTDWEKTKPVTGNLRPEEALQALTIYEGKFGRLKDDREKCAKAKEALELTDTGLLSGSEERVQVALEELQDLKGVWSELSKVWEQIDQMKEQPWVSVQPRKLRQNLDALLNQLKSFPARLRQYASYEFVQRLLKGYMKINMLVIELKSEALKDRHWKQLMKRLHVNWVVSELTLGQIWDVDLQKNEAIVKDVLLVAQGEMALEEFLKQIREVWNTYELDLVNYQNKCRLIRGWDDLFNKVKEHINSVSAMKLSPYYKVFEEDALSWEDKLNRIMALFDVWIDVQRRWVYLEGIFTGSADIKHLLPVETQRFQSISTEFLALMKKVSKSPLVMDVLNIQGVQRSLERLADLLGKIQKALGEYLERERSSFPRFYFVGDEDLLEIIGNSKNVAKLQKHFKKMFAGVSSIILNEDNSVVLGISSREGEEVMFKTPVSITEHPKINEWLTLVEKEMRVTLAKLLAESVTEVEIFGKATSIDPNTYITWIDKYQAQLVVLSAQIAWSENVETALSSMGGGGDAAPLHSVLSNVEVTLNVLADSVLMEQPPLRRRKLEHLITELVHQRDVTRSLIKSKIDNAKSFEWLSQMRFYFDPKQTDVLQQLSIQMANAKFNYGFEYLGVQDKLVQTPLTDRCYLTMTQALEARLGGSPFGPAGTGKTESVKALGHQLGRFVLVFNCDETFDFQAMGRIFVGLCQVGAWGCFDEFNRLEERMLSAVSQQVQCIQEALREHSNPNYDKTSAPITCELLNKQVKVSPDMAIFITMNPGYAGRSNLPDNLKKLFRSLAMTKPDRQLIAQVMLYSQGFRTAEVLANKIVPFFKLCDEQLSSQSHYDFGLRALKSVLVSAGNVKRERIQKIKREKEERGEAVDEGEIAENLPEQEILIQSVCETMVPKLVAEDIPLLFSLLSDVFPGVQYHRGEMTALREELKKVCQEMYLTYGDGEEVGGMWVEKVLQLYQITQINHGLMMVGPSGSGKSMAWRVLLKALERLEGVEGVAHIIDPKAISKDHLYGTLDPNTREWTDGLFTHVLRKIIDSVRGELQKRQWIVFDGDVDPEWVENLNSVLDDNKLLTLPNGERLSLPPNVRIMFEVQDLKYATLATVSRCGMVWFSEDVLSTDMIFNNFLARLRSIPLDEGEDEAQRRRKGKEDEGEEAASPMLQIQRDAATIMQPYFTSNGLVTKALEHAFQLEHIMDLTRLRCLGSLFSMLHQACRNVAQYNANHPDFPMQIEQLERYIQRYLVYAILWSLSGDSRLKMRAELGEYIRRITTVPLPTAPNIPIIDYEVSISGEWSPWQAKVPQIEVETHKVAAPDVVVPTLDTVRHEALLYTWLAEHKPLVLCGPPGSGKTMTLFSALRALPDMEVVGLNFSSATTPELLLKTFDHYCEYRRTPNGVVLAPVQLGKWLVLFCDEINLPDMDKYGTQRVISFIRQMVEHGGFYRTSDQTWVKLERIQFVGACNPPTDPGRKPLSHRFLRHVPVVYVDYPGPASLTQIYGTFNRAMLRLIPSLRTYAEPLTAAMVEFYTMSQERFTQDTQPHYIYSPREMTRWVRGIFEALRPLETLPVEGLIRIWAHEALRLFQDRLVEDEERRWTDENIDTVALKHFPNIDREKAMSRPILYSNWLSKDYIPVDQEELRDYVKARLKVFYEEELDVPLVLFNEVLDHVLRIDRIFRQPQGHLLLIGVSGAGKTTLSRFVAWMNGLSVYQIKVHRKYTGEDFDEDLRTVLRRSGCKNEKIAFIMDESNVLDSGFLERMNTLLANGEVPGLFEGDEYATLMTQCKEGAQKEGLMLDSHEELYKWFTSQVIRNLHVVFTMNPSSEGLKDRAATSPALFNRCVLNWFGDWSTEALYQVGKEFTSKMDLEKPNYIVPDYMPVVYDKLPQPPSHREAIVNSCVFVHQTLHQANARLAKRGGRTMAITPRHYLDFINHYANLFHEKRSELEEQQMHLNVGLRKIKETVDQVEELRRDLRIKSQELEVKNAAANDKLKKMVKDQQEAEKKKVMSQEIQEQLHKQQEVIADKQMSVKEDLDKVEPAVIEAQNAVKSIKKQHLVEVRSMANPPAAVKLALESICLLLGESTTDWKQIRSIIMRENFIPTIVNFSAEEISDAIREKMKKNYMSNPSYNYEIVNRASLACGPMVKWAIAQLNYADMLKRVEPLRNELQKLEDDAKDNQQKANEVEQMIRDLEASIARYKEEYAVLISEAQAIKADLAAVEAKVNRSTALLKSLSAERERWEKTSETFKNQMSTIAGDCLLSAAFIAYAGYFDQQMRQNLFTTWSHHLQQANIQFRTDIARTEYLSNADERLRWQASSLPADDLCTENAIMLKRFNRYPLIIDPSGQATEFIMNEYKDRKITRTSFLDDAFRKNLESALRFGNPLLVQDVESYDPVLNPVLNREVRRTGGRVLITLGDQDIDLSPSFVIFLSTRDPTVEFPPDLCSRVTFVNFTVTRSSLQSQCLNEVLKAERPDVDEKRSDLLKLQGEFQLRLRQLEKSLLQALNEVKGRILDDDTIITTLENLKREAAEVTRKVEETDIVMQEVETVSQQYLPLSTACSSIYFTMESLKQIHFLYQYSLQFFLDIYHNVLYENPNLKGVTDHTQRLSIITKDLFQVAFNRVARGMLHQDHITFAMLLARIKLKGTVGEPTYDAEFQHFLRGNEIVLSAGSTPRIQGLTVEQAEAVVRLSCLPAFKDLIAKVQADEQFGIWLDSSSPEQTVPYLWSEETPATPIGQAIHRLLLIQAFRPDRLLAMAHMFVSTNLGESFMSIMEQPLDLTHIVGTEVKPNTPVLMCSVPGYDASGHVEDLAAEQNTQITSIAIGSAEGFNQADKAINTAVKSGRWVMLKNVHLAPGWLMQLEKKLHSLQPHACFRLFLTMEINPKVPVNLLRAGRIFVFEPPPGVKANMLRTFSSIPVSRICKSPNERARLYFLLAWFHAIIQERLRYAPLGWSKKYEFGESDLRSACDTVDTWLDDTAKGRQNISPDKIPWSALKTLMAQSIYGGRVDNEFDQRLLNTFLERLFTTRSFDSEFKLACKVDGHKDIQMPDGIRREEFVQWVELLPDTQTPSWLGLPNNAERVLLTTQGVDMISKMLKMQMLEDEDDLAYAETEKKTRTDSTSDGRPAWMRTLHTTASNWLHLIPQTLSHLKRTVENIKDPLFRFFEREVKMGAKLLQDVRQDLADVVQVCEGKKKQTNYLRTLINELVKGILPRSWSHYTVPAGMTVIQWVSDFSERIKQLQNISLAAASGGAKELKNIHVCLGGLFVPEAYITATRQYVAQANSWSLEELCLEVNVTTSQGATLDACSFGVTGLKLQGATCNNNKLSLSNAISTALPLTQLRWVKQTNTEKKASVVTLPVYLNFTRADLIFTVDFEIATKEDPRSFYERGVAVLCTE
UniProt Q13885, whole entry, looked up: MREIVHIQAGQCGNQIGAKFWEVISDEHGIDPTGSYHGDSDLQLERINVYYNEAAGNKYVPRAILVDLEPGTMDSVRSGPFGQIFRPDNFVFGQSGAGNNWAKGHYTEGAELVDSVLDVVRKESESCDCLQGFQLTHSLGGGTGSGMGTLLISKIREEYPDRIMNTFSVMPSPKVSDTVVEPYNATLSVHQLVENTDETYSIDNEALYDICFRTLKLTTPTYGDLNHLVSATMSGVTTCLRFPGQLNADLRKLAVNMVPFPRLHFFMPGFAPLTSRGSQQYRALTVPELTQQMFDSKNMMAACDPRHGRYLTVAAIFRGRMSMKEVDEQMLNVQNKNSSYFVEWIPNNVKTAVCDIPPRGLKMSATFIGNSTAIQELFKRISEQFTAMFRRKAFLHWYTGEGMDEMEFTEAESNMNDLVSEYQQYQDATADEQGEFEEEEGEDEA
UniProt Q13526, whole entry, looked up: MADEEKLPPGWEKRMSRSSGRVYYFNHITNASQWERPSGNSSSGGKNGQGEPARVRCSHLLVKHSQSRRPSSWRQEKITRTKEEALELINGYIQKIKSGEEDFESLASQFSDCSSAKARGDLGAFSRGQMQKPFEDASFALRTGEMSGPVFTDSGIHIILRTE

Row | Target | log2 ratio of iodoacetamide-alkyne labeling
1 | WTAP C270 (UniProt Q15007) | inactive: 0.496
2 | UniProt Q14444_C226 | inactive: 0.212
3 | KPNB1 C585 (UniProt Q14974) | inactive: 0.0601
4 | DCTN2 C240 (UniProt Q13561) | inactive: 0.566
5 | DYNC1H1 C3573 (UniProt Q14204) | inactive: 0.325
6 | UniProt Q13885_C239 | inactive: 0.464
7 | FHL1 C212 (UniProt Q13642) | inactive: 0.0707
8 | UniProt Q13557_C373 | inactive: -0.174
9 | ZNF638 C879 (UniProt Q14966) | inactive: 0.109
10 | KPNB1 C689 (UniProt Q14974) | inactive: 0.138
11 | DDX39B C198 (UniProt Q13838) | inactive: -0.129
12 | URB2 C1132 (UniProt Q14146) | inactive: -0.159
13 | UniProt Q13885_C303 | inactive: 0.488
14 | NCAPH C397 (UniProt Q15003) | inactive: 0.622
15 | UniProt Q13557_C273 | inactive: -0.0989
16 | PUM1 C5 (UniProt Q14671) | inactive: 0.834
17 | PIN1 C57 (UniProt Q13526) | inactive: -0.187
18 | DRAP1 C73 (UniProt Q14919) | inactive: -0.0364
19 | PRPSAP1 C19 (UniProt Q14558) | inactive: 0.506

Row | Target | log2 ratio of iodoacetamide-alkyne labeling
20 | KPNB1 C436 (UniProt Q14974) | inactive: 0.582
21 | CHD4 C1827 (UniProt Q14839) | inactive: 0.345
22 | GAPVD1 C741 (UniProt Q14C86) | inactive: 0.233
23 | FRG1 C159 (UniProt Q14331) | inactive: 0.373
24 | SQSTM1 C27 (UniProt Q13501) | inactive: 0.699
25 | CKAP5 C1500 (UniProt Q14008) | inactive: 0.292
26 | CAMK2G C273 (UniProt Q13555) | inactive: 0.506
27 | DYNC1H1 C2142 (UniProt Q14204) | inactive: 0.486
28 | CKAP5 C1911 (UniProt Q14008) | inactive: 0.35
29 | UniProt Q14004_C987 | inactive: 0.324
30 | UniProt Q13885_C129 | inactive: 0.82
31 | GAMT C16 (UniProt Q14353) | inactive: 0.275
32 | FKBP8 C295 (UniProt Q14318) | inactive: -0.104
33 | NUMA1 C1136 (UniProt Q14980) | inactive: 0.0168
34 | TRIM25 C70 (UniProt Q14258) | inactive: 0.188
35 | DYNC1H1 C3147 (UniProt Q14204) | inactive: 0.433
36 | HLTF C360 (UniProt Q14527) | inactive: 0.323
37 | KRR1 C102 (UniProt Q13601) | inactive: 0.172

A second format for some results above:
Row	Target	log2 ratio of iodoacetamide-alkyne labeling
22	GAPVD1 C741 (UniProt Q14C86)	inactive: 0.233
23	FRG1 C159 (UniProt Q14331)	inactive: 0.373
